These are yes or no findings as the source states them, for the method shown. In cells and extracts the contact can be indirect. Some entries that bind do so weakly or less than the wild type.
Target: CCR7-LgBiT (human) (UniProt P32248)
Experiment: split reporter; NanoBiT in live HEK293 cells transiently co-transfected with CCR7-LgBiT and SmBiT-β-arrestin2; HBSS, 20 mM HEPES, 0.5% FBS, pH 7.4; stimulated with CCL19 or CCL21, luminescence followed for 40 min; also after pre-treatment with PTX (50 ng/mL) or CMPD101 (10 µM)

Protein sequences, listed by entry. Tags and fused reporters are not part of them. Residues count along the entry.
UniProt P32248, residues 25-378: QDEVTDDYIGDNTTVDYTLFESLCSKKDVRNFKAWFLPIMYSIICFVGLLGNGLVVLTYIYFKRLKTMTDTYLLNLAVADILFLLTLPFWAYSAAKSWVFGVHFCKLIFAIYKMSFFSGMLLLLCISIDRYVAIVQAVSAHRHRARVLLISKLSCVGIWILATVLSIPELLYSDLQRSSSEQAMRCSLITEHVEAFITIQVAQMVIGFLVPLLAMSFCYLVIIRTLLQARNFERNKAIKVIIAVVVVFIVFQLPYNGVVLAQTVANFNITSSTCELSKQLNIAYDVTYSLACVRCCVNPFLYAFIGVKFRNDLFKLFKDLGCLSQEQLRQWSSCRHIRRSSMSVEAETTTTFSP
UniProt P32121: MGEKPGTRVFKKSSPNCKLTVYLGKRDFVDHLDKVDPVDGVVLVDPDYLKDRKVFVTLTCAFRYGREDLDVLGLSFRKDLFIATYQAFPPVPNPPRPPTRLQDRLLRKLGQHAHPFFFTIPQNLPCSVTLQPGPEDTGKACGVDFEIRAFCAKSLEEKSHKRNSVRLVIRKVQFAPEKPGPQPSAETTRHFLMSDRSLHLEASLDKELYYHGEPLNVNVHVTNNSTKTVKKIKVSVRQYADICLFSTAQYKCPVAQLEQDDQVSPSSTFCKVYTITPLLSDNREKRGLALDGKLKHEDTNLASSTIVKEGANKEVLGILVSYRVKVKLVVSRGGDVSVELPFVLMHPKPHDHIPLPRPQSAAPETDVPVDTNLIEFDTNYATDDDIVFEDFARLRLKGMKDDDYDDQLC

SmBiT-β-arrestin2 (from UniProt P32121 1-409)
binding: binds

Source: publication PMC9408853
